Experimental data as given in PubChem BioAssay AID2685 (National Center for Advancing Translational Sciences (NCATS), 2010).
Some of the results follow. Further columns of the screen follow, without active or inactive calls. Compounds called inactive in the main read-out are mostly missing here. The note in brackets gives the kind of curve behind each potency; many fits are weak.

Assay: qHTS Assay for Lipid Storage Modulators in Drosophila S3 Cells;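 for cell number change: cells counted by Cell Tracker Red CMTPX staining in the red channel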
Details: BODIPY lipid droplet fluorescence, 18-24 h; for cell number change: measured here: cell count max response, cells fed with added oleic acid
How it was run: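 Laser-scanning cytometry quantifies lipid droplet accumulation (500–530 nm total intensity; droplet/cell object ratio) in oleic acid-fed (400 uM added) Drosophila S3 cells treated with a concentration series. 20 uM Triacsin C defined 100% inhibition.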

[1] = measured here: lipid fluorescence (Fed channel) AC50, cells fed with added oleic acid
[2] = measured here: cell number channel AC50, cells fed with added oleic acid

For CCOC(=O)Cc1ccc(NC(=O)c2ccc(C(C)(C)C)cc2)cc1, the cell number change was -14.5% and the AC50 [1] was 6.51 µM [rising, single point].

In the case of CCOc1ccc(N2CC(C(=O)Nc3ccccc3N3CCOCC3)CC2=O)cc1 (stereo not given), the cell number change is reported as 115%, the AC50 [2] is reported as 10.3 µM [rising, partial curve] and the AC50 [1] is reported as 6.51 µM [rising, partial curve].

In the case of Cc1cc(C)c2c(c1)OC(O)(C(F)F)CC2=O (stereo not given), the cell number change is reported as 1.97%.

For COC(=O)c1ccc(C(=O)N2CCCC(Nc3ccc(F)c(F)c3)C2)cc1 (stereo not given), the cell number change was 18.8% and the AC50 [1] was 29.1 µM [rising, single point].

In the case of CCCCc1ccc(NC(=S)NCc2cccs2)cc1, the cell number change is reported as -15.6% and the AC50 [1] is reported as 6.51 µM [rising, single point].

With CCCCOC(=O)Sc1nc2ccccc2o1 the cell number change was 12.6% and the AC50 [1] was 0.58 µM [rising, partial curve].

With Clc1ncn(C23CC4CC(CC(C4)C2)C3)n1 the cell number change was -1.37%.

In the case of CCCN1CCN(CCCNC(=O)c2ccc(CS(=O)c3ccc(OC)cc3)o2)CC1 (stereo not given), the AC50 [1] is reported as 6.51 µM [falling, single point].

With CCOc1ccccc1NC(=O)COC(=O)C(CC)c1ccccc1 (stereo not given) the AC50 [2] was 0.103 µM [falling, single point] and the AC50 [1] was 0.13 µM [falling, partial curve, poor fit].

With C=CCOc1ccc(C2N3CC4(C)CN2CC(CCC)(C3)C4=O)cc1 (stereo not given) the cell number change was -21.5% and the AC50 [1] was 16.4 µM [falling, single point].

For CCCCNC(=O)Nc1cnn(CC)c1C(N)=O, the cell number change was -87%, the AC50 [2] was 20.6 µM [falling, partial curve] and the AC50 [1] was 23.1 µM [falling, partial curve].

With COc1ccc(S(=O)(=O)N2CCOCC2)cc1NC(=O)CC1CCCC1 the cell number change was -13.5% and the AC50 [1] was 29.1 µM [rising, single point].

In the case of O=C(COc1ccccc1)Nc1ccc(S(=O)(=O)N2CCCC2)cc1, the AC50 [2] is reported as 0.164 µM [rising, full curve, poor fit] and the AC50 [1] is reported as 0.0517 µM [falling, full curve, poor fit].

In the case of N#CCN(N=Nc1ccccc1)c1ccccc1, the cell number change is reported as -27.8% and the AC50 [1] is reported as 32.6 µM [falling, single point].

With Cc1nn(C)c(C)c1S(=O)(=O)N(CC(=O)NCCCN1CC(C)CC(C)C1)c1ccc(C(C)C)cc1 (stereo not given) the cell number change was -9.25% and the AC50 [1] was 29.1 µM [falling, single point].

With CCCn1c(NC(=O)C2CCN(C(=O)c3ccc(F)cc3)CC2)nc2ccccc21 the cell number change was 5.87%, the AC50 [2] was 6.51 µM [rising, single point] and the AC50 [1] was 18.4 µM [falling, single point].

With CCc1nc(C)ccc1OCC(=O)O the cell number change was 1.04% and the AC50 [2] was 0.164 µM [falling, full curve, poor fit].

With CN(CCC#N)C(=O)COC(=O)/C=C/c1cccs1 the AC50 [1] was 16.4 µM [rising, single point].

For COc1ccccc1CC(=O)O/N=C(\N)Cc1cccc2ccccc12, the cell number change was -89.1%, the AC50 [2] was 29.1 µM [falling, single point] and the AC50 [1] was 29.1 µM [rising, partial curve].

For CC(=O)Nc1cccc(OCc2ccc(F)cc2)c1, the cell number change was 57.6%, the AC50 [2] was 32.6 µM [rising, single point] and the AC50 [1] was 29.1 µM [rising, single point].

In the case of Cc1ccccc1NC(=O)CSc1nnc(-c2ccco2)c(-c2ccco2)n1, the cell number change is reported as -12.7% and the AC50 [1] is reported as 0.82 µM [rising, single point].

For COc1ccc(CCNCC(O)COc2cccc(Br)c2)cc1 (stereo not given), the cell number change was -27.3% and the AC50 [1] was 5.8 µM [falling, partial curve].

For Cn1c(S(=O)(=O)Cc2ccc(Cl)cc2)nc2ccccc21, the cell number change was 21.1% and the AC50 [1] was 0.146 µM [rising, partial curve, poor fit].

With O=C(c1ccccc1)N1CCn2c(nc3ccccc32)C1 the cell number change was -11.3%.

For c1csc(CNc2ccc3c(c2)OCCO3)c1, the cell number change was 30.6% and the AC50 [2] was 9.2 µM [rising, partial curve].

Work on COc1ccccc1C(=O)NCCNc1ccc([N+](=O)[O-])cc1Cl yielded a cell number change of -27.5%.

With O=C(c1cn(-c2ccccc2)nc1-c1ccc(Cl)cc1)N1CCOCC1 the cell number change was 29.2% and the AC50 [1] was 1.84 µM [rising, partial curve].

COc1cc(OC)c(NC(=O)CCNS(=O)(=O)c2ccc3c(c2)oc(=O)n3C)cc1Cl gave a cell number change of -0.652%.

In the case of CCOC(=O)c1c(Cc2cccc(Cl)c2)c[nH]c1C, the cell number change is reported as -50.7%, the AC50 [2] is reported as 16.4 µM [falling, partial curve] and the AC50 [1] is reported as 18.4 µM [falling, partial curve].

With O=C(N/N=C/C=C\c1ccccc1[N+](=O)[O-])c1cc(-c2ccc3ccccc3c2)n[nH]1 the cell number change was -64.7%, the AC50 [2] was 7.31 µM [falling, partial curve] and the AC50 [1] was 7.31 µM [falling, partial curve].

In the case of COc1ccc2c(c1)c(-c1csc(N)n1)c(C)n2C, the cell number change is reported as -28.8% and the AC50 [1] is reported as 14.6 µM [falling, partial curve].

In the case of COc1cc(C2=NOC(C(=O)N3CCCCCC3)C2)cc(OC)c1OC (stereo not given), the cell number change is reported as 12.2% and the AC50 [1] is reported as 32.6 µM [rising, single point].

For Cc1cc(C)cc(OCCn2ccnc2)c1, the cell number change was -12.7% and the AC50 [1] was 4.61 µM [falling, partial curve].

For COc1ccc(NC(=O)Cn2cc(C(C)=O)c3ccccc32)cc1, the cell number change was 0.73% and the AC50 [1] was 6.51 µM [falling, partial curve, poor fit].

In the case of O=C(c1ccccc1)C1CCN(C(=O)C2CCC(=O)N(Cc3cccc(F)c3)C2)CC1 (stereo not given), the cell number change is reported as -15.3% and the AC50 [1] is reported as 29.1 µM [falling, single point].

In the case of CCOC(=O)C1(Cc2cccc(Cl)c2)CCCN(C(=O)c2occc2C)C1 (stereo not given), the cell number change is reported as -14.7% and the AC50 [2] is reported as 0.0116 µM [falling, full curve, poor fit].

For COc1ccc(C(=O)O)cc1S(=O)(=O)NCc1cccnc1, the cell number change was -52.3% and the AC50 [2] was 0.146 µM [falling, full curve].

In the case of O=C(Nc1cccc2ccccc12)N1CC=C(c2ccccc2)CC1, the cell number change is reported as 16.7%.

With COC(=O)C(C(=O)OC)c1ncc(C(F)(F)F)cc1Cl the cell number change was -44.8%, the AC50 [2] was 7.31 µM [falling, partial curve, poor fit] and the AC50 [1] was 0.13 µM [falling, full curve, poor fit].

Work on COc1ccccc1CC(=O)Nc1nc(-c2ccc(F)c(F)c2)cs1 yielded a cell number change of 33.6%.

For COc1ccc(NC(=O)CN(C)C(=O)c2ccc3c(c2)S(=O)(=O)N=C2CCCCCN23)cc1, the cell number change was 0.54% and the AC50 [1] was 0.651 µM [falling, full curve, poor fit].

In the case of O=C(COC(=O)c1ccccn1)NC(=O)c1ccccc1, the cell number change is reported as 0.55% and the AC50 [1] is reported as 3.66 µM [falling, single point].

In the case of CC(C)c1ccc2[nH]c3nc(SCC(=O)NC4CC4)nnc3c2c1, the AC50 [1] is reported as 0.0103 µM [falling, full curve].

With CCN(CC)C(=O)C1CCCN(Cc2cccc(Oc3ccccc3)c2)C1 (stereo not given) the cell number change was -13.1%.

With O=C1C(NS(=O)(=O)c2ccc(Cl)cc2)=C(N2CCCCC2)C(=O)c2ccccc21 the cell number change was -58.8%, the AC50 [2] was 14.6 µM [falling, single point] and the AC50 [1] was 11.6 µM [falling, partial curve].

In the case of O=C(CNC(=O)c1ccccc1Br)N/N=C/c1ccc(O)cc1, the cell number change is reported as 4.56%.

In the case of COc1cccc(C(=O)NNC(=O)CCC(=O)O)c1, the cell number change is reported as -22.5% and the AC50 [1] is reported as 0.231 µM [falling, full curve].

C/C(=N/OC(=O)CC(C)C)c1cc(-c2ccc(Cl)cc2)no1 showed a cell number change of -39.1%.

For Nc1ccc(-c2c3ccc(=O)cc-3oc3cc(O)ccc23)c(C(=O)O)c1, the cell number change was -92.1%, the AC50 [2] was 25.9 µM [falling, partial curve] and the AC50 [1] was 0.58 µM [falling, single point].

With Cc1ccc(-c2cc3nc(C)cc(NCc4ccco4)n3n2)cc1 the cell number change was -13.7%.

With Cc1ccc(C)c(S(=O)(=O)N2CCCOC2CNC(=O)C(=O)NCc2cccs2)c1 (stereo not given) the cell number change was 6.65% and the AC50 [1] was 18.4 µM [rising, single point].

For COc1ccc(CN(C)C(C)C(=O)Nc2ccc(S(=O)(=O)N3CCCCC3)cc2)cc1F (stereo not given), the cell number change was -35%, the AC50 [2] was 9.2 µM [falling, partial curve] and the AC50 [1] was 0.82 µM [rising, full curve].

For Cc1cc(=O)oc2cc(OCC(=O)N3CCCC(C)C3)ccc12 (stereo not given), the cell number change was -5.71% and the AC50 [1] was 0.13 µM [rising, full curve, poor fit].

With O=C(CSc1nnc(NC(=O)c2ccco2)s1)Nc1ccccc1Br the cell number change was -0.435% and the AC50 [1] was 6.51 µM [rising, single point].

O=Nc1[nH]c(=O)c(/C=C(\O)c2ccccc2)nc1NO gave a cell number change of 1.8%.

With Cc1ccccc1NC1c2ccccc2C(=O)N1Cc1ccco1 (stereo not given) the cell number change was 27.2% and the AC50 [1] was 29.1 µM [rising, single point].

With CCCCC(O)(CCCC)C(=O)N/N=C(\C)c1ccc(Cl)cc1 the cell number change was -24.9% and the AC50 [1] was 29.1 µM [falling, single point].

With COc1cc(-c2nnn(Cc3ccccc3C)n2)cc(OC)c1OC the cell number change was 11.5% and the AC50 [1] was 20.6 µM [rising, single point].

With Cc1sc2nc(-c3cccs3)nc(N3CCCN(C)CC3)c2c1C the AC50 [2] was 4.11 µM [falling, partial curve, poor fit].

In the case of CCN(CC)CC(O)Cn1c(-c2cccc(Cl)c2)nc2cc(C)c(C)cc21 (stereo not given), the cell number change is reported as -1.2% and the AC50 [1] is reported as 0.731 µM [falling, full curve, poor fit].

In the case of CCOc1cc(-c2sc(Nc3ccc(CC)cc3)n[n+]2-c2ccccc2)ccc1OC, the cell number change is reported as -37.7%, the AC50 [2] is reported as 0.0731 µM [falling, full curve, poor fit] and the AC50 [1] is reported as 0.58 µM [falling, single point].

For Cc1ccc(OCCC(=O)NNC(=O)c2nn(C)c(=O)c3ccccc23)cc1, the cell number change was 8.53% and the AC50 [1] was 0.00411 µM [rising, full curve, poor fit].
